Publication PMC12682859, “Interconnected roles of mitochondrial carrier proteins ANT, PiT, and UCPs in proton transport” (Frontiers in Molecular Biosciences, 2025)
Results are given in words; binding and its absence hold for the method and conditions named. Sequences can lack the tags named with a protein.

Experiments:
[1] = target: uncoupling protein 2 (UCP2), recombinant His6-tagged (human) (UniProt P55851); assay: condition: only in OG detergent, before reconstitution into liposomes; semi-native SDS-PAGE; single purified protein in OG detergent before reconstitution; no SDS in loading buffer, 0.1% SDS in gel and running buffer, samples not heated; Coomassie staining; both purified
[2] = target: uncoupling protein 4 (UCP4), recombinant His6-tagged (human) (UniProt O95847); assay: as above
[3] = target: adenine nucleotide translocase 1 (ANT1), recombinant His6-tagged (bovine) (UniProt P02722); assay: condition: only with 2.5% added cardiolipin in the liposomes; semi-native SDS-PAGE; single purified protein reconstituted in liposomes of EYPC + 2.5 mol% added cardiolipin; 0.1% SDS in gel and running buffer, samples not heated; Coomassie staining; both purified
[4] = target: adenine nucleotide translocase 1 (ANT1), recombinant His6-tagged (bovine) (UniProt P02722); assay: condition: only in OG detergent, before reconstitution into liposomes; semi-native SDS-PAGE; single purified protein in OG detergent before reconstitution; no SDS in loading buffer, 0.1% SDS in gel and running buffer, samples not heated; Coomassie staining; both purified

B1: uncoupling protein 2 (UCP2), recombinant His6-tagged (natural protein, human, UniProt P55851 1-309, looked up)
chain: MVGFKATDVPPTATVKFLGAGTAACIADLITFPLDTAKVRLQIQGESQGPVRATASAQYRGVMGTILTMVRTEGPRSLYNGLVAGLQRQMSFASVRIGLYDSVKQFYTKGSEHASIGSRLLAGSTTGALAVAVAQPTDVVKVRFQAQARAGGGRRYQSTVNAYKTIAREEGFRGLWKGTSPNVARNAIVNCAELVTYDLIKDALLKANLMTDDLPCHFTSAFGAGFCTTVIASPVDVVKTRYMNSALGQYSSAGHCALTMLQKEGPRAFYKGFMPSFLRLGSWNVVMFVTYEQLKRALMAACTSREAPF
notes: human UCP2, UniProt P55851; Cloned in pET26b(+); purified as a monomer in OG, tetramer after reconstitution in liposomes; source: E. coli BL21 (DE3) or BL21 CodonPlus (DE3)-RIPL, extracted from bacterial membranes, purified (Ni-NTA IMAC, 1% OG); not shown: pelB leader, N-terminal, cleaved; His6, N-terminal, kept
- binding [1]: no binding

B2: uncoupling protein 4 (UCP4), recombinant His6-tagged (natural protein, human, UniProt O95847 1-323, looked up)
chain: MSVPEEEERLLPLTQRWPRASKFLLSGCAATVAELATFPLDLTKTRLQMQGEAALARLGDGARESAPYRGMVRTALGIIEEEGFLKLWQGVTPAIYRHVVYSGGRMVTYEHLREVVFGKSEDEHYPLWKSVIGGMMAGVIGQFLANPTDLVKVQMQMEGKRKLEGKPLRFRGVHHAFAKILAEGGIRGLWAGWVPNIQRAALVNMGDLTTYDTVKHYLVLNTPLEDNIMTHGLSSLCSGLVASILGTPADVIKSRIMNQPRDKQGRGLLYKSSTDCLIQAVQGEGFMSLYKGFLPSWLRMTPWSMVFWLTYEKIREMSGVSPF
notes: human UCP4, UniProt O95847; Cloned in pET26b(+); purified as a monomer in OG, tetramer after reconstitution in liposomes; source: E. coli BL21 (DE3) or BL21 CodonPlus (DE3)-RIPL, extracted from bacterial membranes, purified (Ni-NTA IMAC, 1% OG); not shown: pelB leader, N-terminal, cleaved; His6, N-terminal, kept
- binding [2]: no binding

B3: adenine nucleotide translocase 1 (ANT1), recombinant His6-tagged (natural protein, bovine)
chain: SDQALSFLKDFLAGGVAAAISKTAVAPIERVKLLLQVQHASKQISAEKQYKGIIDCVVRIPKEQGFLSFWRGNLANVIRYFPTQALNFAFKDKYKQIFLGGVDRHKQFWRYFAGNLASGGAAGATSLCFVYPLDFARTRLAADVGKGAAQREFTGLGNCITKIFKSDGLRGLYQGFNVSVQGIIIYRAAYFGVYDTAKGMLPDPKNVHIIVSWMIAQTVTAVAGLVSYPFDTVRRRMMMQSGRKGADIMYTGTVDCWRKIAKDEGPKAFFKGAWSNVLRGMGGAFVLVLYDEIKKFV
notes: bovine ANT1, UniProt P02722; Cloned in pET26b(+); also called ADP/ATP carrier; AAC; source: E. coli BL21 (DE3) or BL21 CodonPlus (DE3)-RIPL, extracted from bacterial membranes, purified (Ni-NTA IMAC, 1% OG); not shown: pelB leader, N-terminal, cleaved; His6, N-terminal, kept
- binding [3]: no binding
- binding [4]: no binding
